# Results from PubChem BioAssay AID540256 (National Center for Advancing Translational Sciences (NCATS), 2011).
# Values joined by “and” are separate entries in the source; they are usually repeats but may differ in a detail not shown here. Equal values may be shown once. In all, about 300,000 compounds went through this assay and about 3,700 (1.2%) were called active. Inconclusive results, whose numbers are uncertain, are shown with a selection of clear calls. The call rests on the fitted dose curve; tested in HEK293 cells. Potencies beside an inconclusive call are fits to weak or partial responses and may not hold up.
# Experiment: qHTS for Inhibitors of binding or entry into cells for Lassa Virus; further: nearly all actives have a fitted effect of over 50% in size
# Conditions: Lassa virus pseudotype entry inhibition, cell reporter; series mostly up to 37.9 µM
# Potency means the concentration at half of the fitted maximal effect.
row,SMILES,Potency
1,O=C(NCc1ccc2c(c1)OCO2)Nc1ccc([N+](=O)[O-])cc1,inactive
2,CC(C)(C)c1csc(NNC(=O)c2ccc(Br)cc2)n1,"inconclusive: 22.4 µM [inhibitor, single point]"
3,COc1ccc(N(C(=O)c2ccc(C)cc2)S(=O)(=O)c2cccs2)cc1,"inconclusive: 35.5 µM [inhibitor, single point]"
4,Cc1cc(OC(C)C(=O)NCc2cccnc2)c2c3c(c(=O)oc2c1)CCC3 (stereo unspecified),"inconclusive: 10 µM [inhibitor, partial curve, poor fit]"
5,COC(=O)c1cc(Nc2cc(C)c3ccc(O)cc3n2)cc(C(=O)OC)c1,"inconclusive: 6.31 µM [activator, partial curve, poor fit]"
6,Cn1ccnc1C(O)c1cc(C(C)(C)C)c(O)c(C(C)(C)C)c1 (stereo unspecified),inactive
7,COc1ccc(NC(=O)C(CC(C)C)NC(=O)C2CCCCC2)cc1 (stereo unspecified),inactive
8,N/C(=N\OS(=O)(=O)c1ccc(Br)cc1)c1ccncc1,"inconclusive: 18.3 µM [inhibitor, single point]"
9,CCn1cc(C(=O)N2CCc3ccccc3C2)c(=O)c2cc(S(=O)(=O)N3CCCCC3)ccc21,inactive
10,CCOc1ccc(NC(=O)COc2ccc(C(=O)NC3CCCc4ccccc43)cc2OC)cc1 (stereo unspecified),"inconclusive: 6.31 µM [inhibitor, single point]"
11,NS(=O)(=O)c1ccc(Nc2nc(-c3ccc4ccccc4c3)cs2)cc1,"inconclusive: 32.6 µM [inhibitor, single point]"
12,CC(C)(C)C(=O)COC(=O)CCc1nc2ccccc2[nH]c1=O,inactive
13,O=C(Cn1ncc2c3ccccc3n(Cc3ccccc3)c2c1=O)NC1CCCCCC1,"inconclusive: 35.5 µM [activator, single point]"
14,COc1ccc(NC(=O)CN2CCCC(C)C2)c([N+](=O)[O-])c1 (stereo unspecified),inactive
15,CCOc1ccc(CN2CCc3nc(N4CCN(c5ccccn5)CC4)ncc3C2)cc1OC,"inconclusive: 14.1 µM [inhibitor, single point]"
16,Cc1ccc(C(C(=O)NCC2CCCO2)N(C(=O)c2snc(C(N)=O)c2N)c2ccccc2F)o1 (stereo unspecified),inactive
17,C=C(C)Cn1c(C)cc(C)c(S(=O)(=O)c2ccc(C)cc2)c1=O,inactive
18,O=C(O)c1cc(S(=O)(=O)N2CCOCC2)c(Sc2ccccn2)cc1Sc1ccccn1,"inconclusive: 4.47 µM [activator, full curve, poor fit]"
19,COc1ccccc1CNC(=O)C1COc2ccccc2O1 (stereo unspecified),inactive
20,O=C(Nc1ccc(N=Nc2ccccc2)cc1)c1ccccc1Cl,"inconclusive: 3.98 µM [activator, single point]"
21,COc1cccc(/C=N/Nc2ncnc3scc(-c4ccccc4)c23)c1O,active: 5.17 µM
22,CCOC(=O)C1=C(C)N(C)C(=S)NC1c1ccc(Cl)cc1Cl (stereo unspecified),"inconclusive: 7.08 µM [inhibitor, partial curve, poor fit]"
23,CCn1c(=N)n(CC(O)COc2ccccc2)c2ccccc21 (stereo unspecified),inactive

# Filtered by structure, those above with a carbonyl joined to an NH by a bond outside any ring (ten)
row,SMILES,Potency
1,O=C(NCc1ccc2c(c1)OCO2)Nc1ccc([N+](=O)[O-])cc1,inactive
2,CC(C)(C)c1csc(NNC(=O)c2ccc(Br)cc2)n1,"inconclusive: 22.4 µM [inhibitor, single point]"
4,Cc1cc(OC(C)C(=O)NCc2cccnc2)c2c3c(c(=O)oc2c1)CCC3 (stereo unspecified),"inconclusive: 10 µM [inhibitor, partial curve, poor fit]"
7,COc1ccc(NC(=O)C(CC(C)C)NC(=O)C2CCCCC2)cc1 (stereo unspecified),inactive
10,CCOc1ccc(NC(=O)COc2ccc(C(=O)NC3CCCc4ccccc43)cc2OC)cc1 (stereo unspecified),"inconclusive: 6.31 µM [inhibitor, single point]"
13,O=C(Cn1ncc2c3ccccc3n(Cc3ccccc3)c2c1=O)NC1CCCCCC1,"inconclusive: 35.5 µM [activator, single point]"
14,COc1ccc(NC(=O)CN2CCCC(C)C2)c([N+](=O)[O-])c1 (stereo unspecified),inactive
16,Cc1ccc(C(C(=O)NCC2CCCO2)N(C(=O)c2snc(C(N)=O)c2N)c2ccccc2F)o1 (stereo unspecified),inactive
19,COc1ccccc1CNC(=O)C1COc2ccccc2O1 (stereo unspecified),inactive
20,O=C(Nc1ccc(N=Nc2ccccc2)cc1)c1ccccc1Cl,"inconclusive: 3.98 µM [activator, single point]"

# Next part.

row,SMILES,Potency
1,COc1ccc(/C=N/NS(C)(=O)=O)c(OC)c1,"inconclusive: 23.1 µM [activator, partial curve, poor fit]"
2,CC(C)(C)c1nnc(NC(=O)C2CC(=O)N(CCc3ccc(F)cc3)C2)s1 (stereo unspecified),"inconclusive: 6.31 µM [inhibitor, single point]"
3,O=C(COC(=O)c1cncc(Br)c1)NCc1ccc(F)cc1,"inconclusive: 35.5 µM [activator, single point]"
4,COC(=O)C=C[C@H]1c2ccccc2[C@@H](OC)[C@@H]1C,"inactive and inconclusive: 2.37 µM [activator, partial curve, poor fit]"
5,COc1ccc(N(Cc2nnc3n2CCCCC3)C(=O)Nc2cccc(C)c2)cc1Cl,inactive
6,COc1ccccc1CN1CCNC(=O)C1=O,inactive
7,O=C(COC(=O)CNC(=O)c1sc2ccccc2c1Cl)Nc1c(Cl)cc(Cl)cc1Cl,"inconclusive: 12.6 µM [activator, single point]"
8,COc1ccc(-c2cc(-c3ccccc3O)[nH]n2)cc1,"inconclusive: 35.5 µM [inhibitor, single point]"
9,COc1ccc(OC)c(S(=O)(=O)NCc2nc3nc(C)cc(C)n3n2)c1,inactive
10,Nc1nncn1C(=O)c1cccs1,"inconclusive: 3.16 µM [activator, full curve]"
11,CCCCn1c(O)c(/C(CC)=N/N2CCCCC2c2cccnc2)c(=O)[nH]c1=S (stereo unspecified),"inconclusive: 4.47 µM [inhibitor, partial curve, poor fit]"
12,COc1ccccc1CN(C)C(=O)C(c1ccccc1)c1ccccc1,"inconclusive: 22.4 µM [inhibitor, single point]"
13,O=C(Cc1ccc(F)cc1)OCC(=O)N1CCN(S(=O)(=O)c2ccc(Cl)cc2)CC1,inactive
14,COc1ccc(CNC(=O)CN(C(=O)CCC(=O)Nc2nccs2)c2cccc(C)c2)cc1,inactive
15,O=C(CCl)N(c1ccccc1)C1CCS(=O)(=O)C1 (stereo unspecified),"inconclusive: 29.1 µM [inhibitor, single point]"
16,COc1ccc2sc3ccccc3c(=O)c2c1OC,"inconclusive: 1.58 µM [activator, full curve, poor fit]"
17,CC(C)CC(NS(=O)(=O)c1ccc2[nH]c(=O)c(=O)[nH]c2c1)C(=O)O (stereo unspecified),inactive
18,Cc1ccc(C(=O)c2cn(Cc3ccccc3C)c3nc(C)ccc3c2=O)cc1,"inconclusive: 35.5 µM [inhibitor, single point]"
19,Cc1ccc(NC(=S)Nc2ccc3cn[nH]c3c2)c(C)c1,inactive
20,O=C(N/N=C/c1ccc(OC(=O)c2cccc(F)c2)cc1)c1cccnc1,inactive
21,Cc1ccc(Nc2nnc(SCC(=O)Nc3cccc(S(=O)(=O)N4CCCCC4)c3)s2)cc1,"inconclusive: 14.1 µM [inhibitor, single point]"
22,COc1ccc(C(=O)Nc2sc3c(c2C(=O)O)CC(C)(C)OC3)cc1,"inconclusive: 7.08 µM [inhibitor, full curve]"
23,CC(/C=N/NC(=O)c1nn(C)c(C)c1Br)=C\c1ccccc1,"inconclusive: 7.08 µM [activator, partial curve, poor fit]"
